# Assay results taken from the supplement of paper PMC10849652.
# Sequences of proteins named here, by UniProt entry; tags and fusion partners are left off. A change or cut given only in a name is not applied to a line headed by its entry.
# UniProt O95747, whole entry, looked up: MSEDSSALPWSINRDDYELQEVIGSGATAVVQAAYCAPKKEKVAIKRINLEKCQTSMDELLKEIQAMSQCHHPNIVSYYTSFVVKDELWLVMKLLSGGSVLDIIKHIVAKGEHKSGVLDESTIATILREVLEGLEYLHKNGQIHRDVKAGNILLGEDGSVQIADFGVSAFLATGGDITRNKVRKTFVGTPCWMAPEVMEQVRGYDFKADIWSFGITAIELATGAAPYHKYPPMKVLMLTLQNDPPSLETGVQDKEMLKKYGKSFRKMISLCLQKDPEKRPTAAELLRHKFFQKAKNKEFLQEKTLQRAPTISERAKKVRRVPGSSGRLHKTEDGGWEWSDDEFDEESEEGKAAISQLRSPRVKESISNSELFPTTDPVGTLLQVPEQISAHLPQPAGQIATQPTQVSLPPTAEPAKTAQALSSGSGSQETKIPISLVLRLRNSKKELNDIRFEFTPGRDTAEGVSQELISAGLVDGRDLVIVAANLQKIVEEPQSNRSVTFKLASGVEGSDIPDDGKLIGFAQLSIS
# UniProt Q5SRE5: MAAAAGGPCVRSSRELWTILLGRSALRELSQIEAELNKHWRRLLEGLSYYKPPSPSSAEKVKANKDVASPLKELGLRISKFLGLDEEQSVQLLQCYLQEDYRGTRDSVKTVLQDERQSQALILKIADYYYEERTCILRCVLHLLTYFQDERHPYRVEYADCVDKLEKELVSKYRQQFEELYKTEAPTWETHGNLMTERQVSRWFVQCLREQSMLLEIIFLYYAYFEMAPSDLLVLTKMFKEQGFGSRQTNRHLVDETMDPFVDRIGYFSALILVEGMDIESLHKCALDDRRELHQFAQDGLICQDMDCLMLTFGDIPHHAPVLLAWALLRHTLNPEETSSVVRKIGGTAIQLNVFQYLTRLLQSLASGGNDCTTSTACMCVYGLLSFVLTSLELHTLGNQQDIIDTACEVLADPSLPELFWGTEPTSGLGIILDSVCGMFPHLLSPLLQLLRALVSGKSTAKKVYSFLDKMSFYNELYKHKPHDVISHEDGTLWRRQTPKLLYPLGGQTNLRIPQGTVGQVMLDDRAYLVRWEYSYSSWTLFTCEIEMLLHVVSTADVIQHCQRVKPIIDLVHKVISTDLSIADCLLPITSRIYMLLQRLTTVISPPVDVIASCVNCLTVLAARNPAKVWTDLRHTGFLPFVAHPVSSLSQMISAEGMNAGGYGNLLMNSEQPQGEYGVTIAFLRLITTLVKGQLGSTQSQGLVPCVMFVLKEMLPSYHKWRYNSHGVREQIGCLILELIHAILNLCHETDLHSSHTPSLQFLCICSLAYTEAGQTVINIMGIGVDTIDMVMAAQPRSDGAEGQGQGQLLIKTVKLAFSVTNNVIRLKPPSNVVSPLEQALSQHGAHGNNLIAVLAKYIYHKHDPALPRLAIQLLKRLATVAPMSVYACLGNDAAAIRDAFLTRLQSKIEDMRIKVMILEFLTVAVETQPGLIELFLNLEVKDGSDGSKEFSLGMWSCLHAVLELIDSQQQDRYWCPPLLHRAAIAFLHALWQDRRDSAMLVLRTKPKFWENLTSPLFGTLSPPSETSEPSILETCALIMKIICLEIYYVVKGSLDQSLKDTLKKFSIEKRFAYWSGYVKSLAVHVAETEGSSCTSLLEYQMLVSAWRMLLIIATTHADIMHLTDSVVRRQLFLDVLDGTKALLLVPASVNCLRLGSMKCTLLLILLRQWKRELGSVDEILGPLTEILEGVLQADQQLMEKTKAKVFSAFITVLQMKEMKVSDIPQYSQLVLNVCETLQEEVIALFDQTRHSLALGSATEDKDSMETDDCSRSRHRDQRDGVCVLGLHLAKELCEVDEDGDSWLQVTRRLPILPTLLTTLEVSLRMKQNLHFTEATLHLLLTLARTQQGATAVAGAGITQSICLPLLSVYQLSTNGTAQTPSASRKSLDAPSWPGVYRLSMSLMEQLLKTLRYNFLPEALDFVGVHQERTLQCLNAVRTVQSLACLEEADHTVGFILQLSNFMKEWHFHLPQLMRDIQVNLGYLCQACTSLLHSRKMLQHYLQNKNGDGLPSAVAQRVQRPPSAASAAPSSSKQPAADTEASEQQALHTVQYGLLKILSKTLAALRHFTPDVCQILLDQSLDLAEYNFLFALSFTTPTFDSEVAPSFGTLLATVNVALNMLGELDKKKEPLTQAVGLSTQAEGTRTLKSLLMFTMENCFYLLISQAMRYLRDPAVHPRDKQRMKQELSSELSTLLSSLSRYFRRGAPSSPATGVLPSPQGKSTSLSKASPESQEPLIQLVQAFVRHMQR
# UniProt Q9BTK6, whole entry, looked up: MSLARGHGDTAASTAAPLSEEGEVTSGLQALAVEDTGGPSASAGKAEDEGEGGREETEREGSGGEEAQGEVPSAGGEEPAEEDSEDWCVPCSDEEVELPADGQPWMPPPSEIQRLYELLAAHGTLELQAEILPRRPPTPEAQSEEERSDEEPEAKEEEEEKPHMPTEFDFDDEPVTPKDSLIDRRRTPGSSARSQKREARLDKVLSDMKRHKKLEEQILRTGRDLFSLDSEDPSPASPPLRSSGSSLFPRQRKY
# UniProt Q8TE04: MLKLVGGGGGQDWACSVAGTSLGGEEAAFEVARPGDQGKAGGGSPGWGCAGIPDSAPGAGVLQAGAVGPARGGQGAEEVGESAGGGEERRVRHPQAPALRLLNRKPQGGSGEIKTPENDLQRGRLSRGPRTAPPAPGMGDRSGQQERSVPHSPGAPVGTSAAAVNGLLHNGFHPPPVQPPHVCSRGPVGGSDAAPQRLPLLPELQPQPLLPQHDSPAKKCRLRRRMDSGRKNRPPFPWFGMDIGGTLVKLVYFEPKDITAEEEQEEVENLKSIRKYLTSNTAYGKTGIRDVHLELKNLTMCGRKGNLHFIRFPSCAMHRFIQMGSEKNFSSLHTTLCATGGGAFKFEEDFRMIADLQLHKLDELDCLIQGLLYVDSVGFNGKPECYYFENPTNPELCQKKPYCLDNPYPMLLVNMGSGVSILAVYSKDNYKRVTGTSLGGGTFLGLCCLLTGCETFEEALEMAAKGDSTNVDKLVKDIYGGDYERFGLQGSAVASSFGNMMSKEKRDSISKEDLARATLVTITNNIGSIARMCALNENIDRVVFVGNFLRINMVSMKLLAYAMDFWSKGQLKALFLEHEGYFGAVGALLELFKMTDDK
# UniProt Q9UKX7: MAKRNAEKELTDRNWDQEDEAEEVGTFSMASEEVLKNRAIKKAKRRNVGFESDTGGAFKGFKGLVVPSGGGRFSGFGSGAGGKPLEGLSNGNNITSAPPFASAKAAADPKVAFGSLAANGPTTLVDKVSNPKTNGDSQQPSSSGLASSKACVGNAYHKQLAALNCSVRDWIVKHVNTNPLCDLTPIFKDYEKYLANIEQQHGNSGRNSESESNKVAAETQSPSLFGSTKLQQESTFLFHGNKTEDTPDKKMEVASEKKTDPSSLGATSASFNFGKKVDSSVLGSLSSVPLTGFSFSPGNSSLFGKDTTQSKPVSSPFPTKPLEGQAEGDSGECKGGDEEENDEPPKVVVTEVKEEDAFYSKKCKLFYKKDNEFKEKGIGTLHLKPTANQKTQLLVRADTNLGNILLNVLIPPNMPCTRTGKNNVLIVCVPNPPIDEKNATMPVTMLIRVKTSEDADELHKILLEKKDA
# UniProt Q9UNF0: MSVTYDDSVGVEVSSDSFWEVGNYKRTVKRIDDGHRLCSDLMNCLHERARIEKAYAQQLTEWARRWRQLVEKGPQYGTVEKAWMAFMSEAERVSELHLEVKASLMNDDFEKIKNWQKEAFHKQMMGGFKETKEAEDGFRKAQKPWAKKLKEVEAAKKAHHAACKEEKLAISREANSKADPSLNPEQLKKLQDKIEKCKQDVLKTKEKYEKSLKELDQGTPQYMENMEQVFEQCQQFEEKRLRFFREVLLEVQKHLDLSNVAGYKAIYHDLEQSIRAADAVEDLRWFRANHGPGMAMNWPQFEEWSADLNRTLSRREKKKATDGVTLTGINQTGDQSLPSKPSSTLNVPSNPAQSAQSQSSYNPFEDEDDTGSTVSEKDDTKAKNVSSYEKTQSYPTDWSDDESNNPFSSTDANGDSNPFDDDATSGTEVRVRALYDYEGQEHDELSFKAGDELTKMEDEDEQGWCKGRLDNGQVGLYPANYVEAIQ
# UniProt Q9NRP0: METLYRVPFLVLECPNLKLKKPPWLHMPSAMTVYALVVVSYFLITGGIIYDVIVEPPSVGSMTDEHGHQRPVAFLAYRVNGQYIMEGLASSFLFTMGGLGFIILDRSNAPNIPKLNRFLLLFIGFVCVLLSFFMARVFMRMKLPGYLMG
# UniProt O43929: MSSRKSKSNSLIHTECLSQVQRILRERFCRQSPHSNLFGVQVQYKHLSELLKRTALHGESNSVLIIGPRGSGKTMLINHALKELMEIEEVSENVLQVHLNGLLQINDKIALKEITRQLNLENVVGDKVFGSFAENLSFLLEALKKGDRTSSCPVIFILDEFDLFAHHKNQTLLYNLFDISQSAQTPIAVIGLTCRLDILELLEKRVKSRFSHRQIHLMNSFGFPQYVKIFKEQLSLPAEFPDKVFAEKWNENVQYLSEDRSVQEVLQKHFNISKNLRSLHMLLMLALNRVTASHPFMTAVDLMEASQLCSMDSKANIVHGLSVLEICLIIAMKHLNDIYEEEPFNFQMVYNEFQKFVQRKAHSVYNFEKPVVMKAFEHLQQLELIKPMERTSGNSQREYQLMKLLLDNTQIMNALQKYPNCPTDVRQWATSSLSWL
# UniProt Q8TEM1: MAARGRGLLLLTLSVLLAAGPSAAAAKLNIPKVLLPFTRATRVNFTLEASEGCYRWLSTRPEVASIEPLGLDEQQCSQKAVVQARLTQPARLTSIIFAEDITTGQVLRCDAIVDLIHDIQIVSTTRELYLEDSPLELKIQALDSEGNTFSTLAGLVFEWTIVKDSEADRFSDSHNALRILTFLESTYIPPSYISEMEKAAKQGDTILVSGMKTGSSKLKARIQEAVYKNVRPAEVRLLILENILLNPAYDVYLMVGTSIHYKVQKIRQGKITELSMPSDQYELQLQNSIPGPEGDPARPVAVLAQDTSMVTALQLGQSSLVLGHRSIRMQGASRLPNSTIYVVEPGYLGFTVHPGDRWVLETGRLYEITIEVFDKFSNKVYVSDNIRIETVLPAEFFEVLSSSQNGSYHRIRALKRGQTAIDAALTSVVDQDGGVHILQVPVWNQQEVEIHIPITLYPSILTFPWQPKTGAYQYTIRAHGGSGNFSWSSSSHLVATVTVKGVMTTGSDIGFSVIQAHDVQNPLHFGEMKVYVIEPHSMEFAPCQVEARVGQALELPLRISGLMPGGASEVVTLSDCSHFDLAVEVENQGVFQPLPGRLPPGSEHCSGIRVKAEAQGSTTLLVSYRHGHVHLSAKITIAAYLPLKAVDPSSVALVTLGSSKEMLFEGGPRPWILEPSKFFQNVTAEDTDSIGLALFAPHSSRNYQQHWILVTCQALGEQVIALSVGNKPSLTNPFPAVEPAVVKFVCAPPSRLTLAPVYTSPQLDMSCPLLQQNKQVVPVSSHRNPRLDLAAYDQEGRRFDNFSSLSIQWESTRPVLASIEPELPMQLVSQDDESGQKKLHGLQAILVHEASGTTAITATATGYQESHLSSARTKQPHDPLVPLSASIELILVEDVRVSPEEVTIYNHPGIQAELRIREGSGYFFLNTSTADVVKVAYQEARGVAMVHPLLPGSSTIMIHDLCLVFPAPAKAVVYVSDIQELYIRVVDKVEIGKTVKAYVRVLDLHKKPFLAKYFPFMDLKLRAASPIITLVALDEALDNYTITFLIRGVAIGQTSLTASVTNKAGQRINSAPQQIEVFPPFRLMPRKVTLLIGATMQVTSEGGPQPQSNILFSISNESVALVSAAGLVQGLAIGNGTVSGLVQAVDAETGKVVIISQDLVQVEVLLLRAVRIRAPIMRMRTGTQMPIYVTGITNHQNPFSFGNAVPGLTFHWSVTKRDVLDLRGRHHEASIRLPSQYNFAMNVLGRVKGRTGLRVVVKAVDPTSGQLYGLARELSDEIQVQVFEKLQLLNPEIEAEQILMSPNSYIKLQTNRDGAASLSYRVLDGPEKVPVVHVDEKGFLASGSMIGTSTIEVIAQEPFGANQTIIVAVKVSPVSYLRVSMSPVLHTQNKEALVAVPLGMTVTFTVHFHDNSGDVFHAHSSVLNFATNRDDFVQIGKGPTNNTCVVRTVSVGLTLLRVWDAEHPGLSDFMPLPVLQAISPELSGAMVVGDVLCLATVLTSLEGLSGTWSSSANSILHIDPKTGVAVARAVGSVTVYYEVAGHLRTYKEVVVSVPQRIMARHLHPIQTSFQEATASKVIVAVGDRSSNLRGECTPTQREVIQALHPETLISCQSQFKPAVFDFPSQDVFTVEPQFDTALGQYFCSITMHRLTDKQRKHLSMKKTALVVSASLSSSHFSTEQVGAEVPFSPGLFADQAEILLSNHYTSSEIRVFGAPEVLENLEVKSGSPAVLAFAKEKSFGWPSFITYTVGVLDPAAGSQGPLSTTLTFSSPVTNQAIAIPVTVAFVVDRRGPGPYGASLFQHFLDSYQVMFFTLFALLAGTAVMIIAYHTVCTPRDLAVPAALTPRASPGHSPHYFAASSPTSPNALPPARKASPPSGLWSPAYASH
# The other results are listed elsewhere or left out.
# Compound: CC(C)(O)CC(=O)NCCn1ccc2ncnc(Nc3ccc(Oc4cccc(C(F)(F)F)c4)c(Cl)c3)c21
# Test: log2 fold change, soluble protein after heating vs DMSO (PISA); higher = thermal stabilisation; K562 lysate, 10 uM; active = over 0.2 and 3.5 SD of the protein, either way, in both replicates (recomputed)
# Method in brief: (§1)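 Log-two fold change in thermal stability relative to solvent controls is reported from duplicates. For each sample, crude K562 extract from dounce-homogenised pellets in PBS pH 7.4 with 1 mM MgCl2, at 1 mg/mL protein, was treated with 10 μM compound for 30 min. Aliquots heated for 3 min across 48°C-58°C were pooled, brought to 0.5% NP-40 at 4°C and cleared at 21,000xg for 90 min. The supernatant was quantified by TMTpro 16plex LC-MS/MS with channel sums equalised.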
row,Target,log2 fold change
1,OXSR1 (UniProt O95747),inactive: 0.005
2,ORC5 (UniProt O43913),inactive: -0.001
3,OSBPL8 (UniProt Q9BZF1),inactive: -0.01
4,NUP188 (UniProt Q5SRE5),inactive: -0.021
5,PAGR1 (UniProt Q9BTK6),inactive: 0.054
6,OMA1 (UniProt Q96E52),inactive: -0.04
7,OTC (UniProt P00480),inactive: -0.18
8,PANK1 (UniProt Q8TE04),inactive: -0.003
9,PAFAH1B3 (UniProt Q15102),inactive: -0.01
10,PALM3 (UniProt A6NDB9),inactive: 0.033
11,OVCA2 (UniProt Q8WZ82),inactive: 0.108
12,PACS1 (UniProt Q6VY07),inactive: -0.042
13,NUP205 (UniProt Q92621),inactive: -0.006
14,OPA1 isoform 2 (UniProt O60313),inactive: -0.036
15,OTUD6B (UniProt Q8N6M0),inactive: 0.007
16,PAPOLA (UniProt P51003),inactive: -0.016
17,OTUD5 isoform 5 (UniProt Q96G74),inactive: -0.038

row,Target,log2 fold change
1,NUP50 (UniProt Q9UKX7),inactive: -0.024
2,OGFOD2 (UniProt Q6N063),inactive: -0.018
3,PAK1IP1 (UniProt Q9NWT1),inactive: -0.009
4,PACSIN2 (UniProt Q9UNF0),inactive: 0.002
5,OSTC (UniProt Q9NRP0),inactive: -0.049
6,ORC4 (UniProt O43929),inactive: 0.001
7,PAF1 (UniProt Q8N7H5),inactive: -0.029
8,OGFOD3 (UniProt Q6PK18),inactive: 0.019
9,OSTC isoform 2 (UniProt Q9NRP0),inactive: -0.178
10,OSBPL2 (UniProt Q9H1P3),inactive: -0.054
11,NUP210 (UniProt Q8TEM1),inactive: -0.075
12,NUP85 (UniProt Q9BW27),inactive: -0.009
13,NXF1 (UniProt Q9UBU9),inactive: -0.028
14,ORC3 isoform 2 (UniProt Q9UBD5),inactive: -0.05
15,PAPSS1 (UniProt O43252),inactive: 0.005
16,PALMD (UniProt Q9NP74),inactive: 0.172

# Compound: CC(C)C1=C2N=C(C=C(N2N=C1)NCC3=CC=CC=C3)NCCCCCCN
# Test: as above
# Method in brief: as §1
row,Target,log2 fold change
1,OXSR1 (UniProt O95747),inactive: 0.021
2,ORC5 (UniProt O43913),inactive: 0.022
3,OSBPL8 (UniProt Q9BZF1),inactive: -0.031
4,NUP188 (UniProt Q5SRE5),inactive: -0.028
5,PAGR1 (UniProt Q9BTK6),inactive: 0.254
6,OMA1 (UniProt Q96E52),inactive: 0.004
7,OTC (UniProt P00480),inactive: 0.017
8,PANK1 (UniProt Q8TE04),inactive: -0.079
9,PAFAH1B3 (UniProt Q15102),inactive: 0.015
10,PALM3 (UniProt A6NDB9),inactive: -0.05
11,OVCA2 (UniProt Q8WZ82),inactive: -0.042
12,PACS1 (UniProt Q6VY07),inactive: -0.039
13,NUP205 (UniProt Q92621),inactive: -0.036
14,OPA1 isoform 2 (UniProt O60313),inactive: -0.035
15,OTUD6B (UniProt Q8N6M0),inactive: 0.009
16,PAPOLA (UniProt P51003),inactive: -0.003
17,OTUD5 isoform 5 (UniProt Q96G74),inactive: -0.047

row,Target,log2 fold change
1,NUP50 (UniProt Q9UKX7),inactive: -0.025
2,OGFOD2 (UniProt Q6N063),inactive: -0.125
3,PAK1IP1 (UniProt Q9NWT1),inactive: -0.003
4,PACSIN2 (UniProt Q9UNF0),inactive: -0.012
5,OSTC (UniProt Q9NRP0),inactive: 0.032
6,ORC4 (UniProt O43929),inactive: 0.032
7,PAF1 (UniProt Q8N7H5),inactive: -0.012
8,OGFOD3 (UniProt Q6PK18),inactive: -0.001
9,OSTC isoform 2 (UniProt Q9NRP0),inactive: -0.002
10,OSBPL2 (UniProt Q9H1P3),inactive: -0.009
11,NUP210 (UniProt Q8TEM1),inactive: -0.005
12,NUP85 (UniProt Q9BW27),inactive: 0.007
13,NXF1 (UniProt Q9UBU9),inactive: 0.067
14,ORC3 isoform 2 (UniProt Q9UBD5),inactive: 0.008
15,PAPSS1 (UniProt O43252),inactive: -0.008
16,PALMD (UniProt Q9NP74),inactive: -0.071

# Compound: CC1=C(C(CC(=O)N1)C2=CC=C(C=C2)C(F)(F)F)C(=O)NC3=C(C=C4C(=C3)C=NN4)F
# Test: as above
# Method in brief: as §1
row,Target,log2 fold change
1,OXSR1 (UniProt O95747),inactive: 0.019
2,ORC5 (UniProt O43913),inactive: -0.027
3,OSBPL8 (UniProt Q9BZF1),inactive: -0.009
4,NUP188 (UniProt Q5SRE5),inactive: -0.005
5,PAGR1 (UniProt Q9BTK6),inactive: 0.029
6,OMA1 (UniProt Q96E52),inactive: -0.066
7,OTC (UniProt P00480),inactive: -0.055
8,PANK1 (UniProt Q8TE04),inactive: 0.045
9,PAFAH1B3 (UniProt Q15102),inactive: -0.026
10,PALM3 (UniProt A6NDB9),inactive: 0.027
11,OVCA2 (UniProt Q8WZ82),inactive: -0.037
12,PACS1 (UniProt Q6VY07),inactive: -0.009
13,NUP205 (UniProt Q92621),inactive: 0.003
14,OPA1 isoform 2 (UniProt O60313),inactive: 0.031
15,OTUD6B (UniProt Q8N6M0),inactive: 0.008
16,PAPOLA (UniProt P51003),inactive: -0.004
17,OTUD5 isoform 5 (UniProt Q96G74),inactive: 0.04

row,Target,log2 fold change
1,NUP50 (UniProt Q9UKX7),inactive: 0.033
2,OGFOD2 (UniProt Q6N063),inactive: -0.023
3,PAK1IP1 (UniProt Q9NWT1),inactive: 0
4,PACSIN2 (UniProt Q9UNF0),inactive: -0.003
5,OSTC (UniProt Q9NRP0),inactive: -0.015
6,ORC4 (UniProt O43929),inactive: 0.01
7,PAF1 (UniProt Q8N7H5),inactive: -0.041
8,OGFOD3 (UniProt Q6PK18),inactive: 0.155
9,OSTC isoform 2 (UniProt Q9NRP0),inactive: -0.043
10,OSBPL2 (UniProt Q9H1P3),inactive: 0
11,NUP210 (UniProt Q8TEM1),inactive: 0.024
12,NUP85 (UniProt Q9BW27),inactive: 0.013
13,NXF1 (UniProt Q9UBU9),inactive: -0.001
14,ORC3 isoform 2 (UniProt Q9UBD5),inactive: 0.048
15,PAPSS1 (UniProt O43252),inactive: -0.022
16,PALMD (UniProt Q9NP74),inactive: 0.047
